Data as given in patent publication US11981626B1, “Compound embodiments for hydrogen sulfide production and methods of making and using the same” (University of Oregon, priority 2018, dated 2024).

Experiment: H2S production measured by methylene blue (MB) assay in PBS containing BSA and CA
Assay type: physicochemical
Conditions: 50 μM by-product, PBS pH 7.4, BSA
Method: Using the same conditions, H2S production was measured at different time points using the MB assay (FIG. 5A, curve labeled with the “▾” symbol). The MB assay allows for H2S quantification from the reaction of H2S with N,N-dimethyl-p-phenylenediamine in the presence of FeCl3 and acid to produce methylene blue (MB, λmax=670). In the MB assay, a γ-KetoTCM-1 stock solution (100 μL, 10.0 mM in DMSO) was added to 20.0 mL of PBS (pH 7.40, 10.0 mM) containing BSA (5.00 mg/mL) and CA (25.0 μg/mL) in a 25-mL scintillation vial at 37° C. Next, 0.300 mL aliquots of the reaction mixture were transferred to UV cuvettes containing 0.300 mL of MB cocktail at different time points. The MB reaction mixture was incubated at room temperature for 1 hour and the precipitate was removed using syringe filters. The absorbance at 670 nm was then measured and was converted to H2S concentration by using the H2S calibration curve in FIG. 6. […] The MB solution was allowed to react with H2S for 1 hour before measuring the absorbance at 670 nm.
The linearity between these two methods was lost after 60 minutes due to the oxidation of H2S in the MB assay at extended incubation times (FIG. 5A). […] The absorbance at 670 nm was then measured and converted to H2S concentration by using the H2S calibration curve in FIG. 6. […]

SMILES | response of reaction by-products in the MB assay
C=CC(C)=O [MVK, methyl vinyl ketone] | did not provide a positive response
Nc1ccc([N+](=O)[O-])cc1 [PNA, para-nitroaniline] | did not provide a positive response
